# In paper PMC8346516 (Nature Communications, 2021):
# Sequences of proteins named here, by UniProt entry; tags and fusion partners are left off.
# UniProt Q8NHX9: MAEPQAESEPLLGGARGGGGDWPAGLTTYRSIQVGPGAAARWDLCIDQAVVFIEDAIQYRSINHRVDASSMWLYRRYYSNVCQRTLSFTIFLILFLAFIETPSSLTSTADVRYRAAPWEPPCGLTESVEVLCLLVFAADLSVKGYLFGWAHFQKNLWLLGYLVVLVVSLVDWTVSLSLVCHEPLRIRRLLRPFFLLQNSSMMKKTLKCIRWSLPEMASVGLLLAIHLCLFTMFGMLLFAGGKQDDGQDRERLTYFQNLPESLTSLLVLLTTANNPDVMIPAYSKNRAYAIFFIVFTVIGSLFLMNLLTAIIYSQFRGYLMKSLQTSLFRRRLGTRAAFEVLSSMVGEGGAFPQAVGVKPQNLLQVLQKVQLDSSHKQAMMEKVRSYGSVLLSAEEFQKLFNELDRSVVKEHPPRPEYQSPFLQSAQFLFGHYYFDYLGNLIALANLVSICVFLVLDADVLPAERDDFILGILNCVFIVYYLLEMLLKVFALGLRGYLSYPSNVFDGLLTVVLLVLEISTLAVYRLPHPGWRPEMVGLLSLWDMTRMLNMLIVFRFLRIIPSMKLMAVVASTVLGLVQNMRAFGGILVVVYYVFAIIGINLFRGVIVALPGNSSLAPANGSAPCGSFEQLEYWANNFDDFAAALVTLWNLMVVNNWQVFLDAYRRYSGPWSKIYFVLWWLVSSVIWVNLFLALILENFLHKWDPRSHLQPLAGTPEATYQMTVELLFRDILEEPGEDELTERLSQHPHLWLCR
# UniProt Q3MHD2: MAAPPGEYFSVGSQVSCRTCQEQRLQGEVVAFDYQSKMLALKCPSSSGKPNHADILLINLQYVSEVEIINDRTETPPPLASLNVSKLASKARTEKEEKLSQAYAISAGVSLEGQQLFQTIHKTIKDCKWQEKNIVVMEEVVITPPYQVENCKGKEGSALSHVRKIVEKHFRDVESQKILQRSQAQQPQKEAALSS
# These are yes or no findings as the source states them, for the method shown. In cells and extracts the contact can be indirect. A yes stands for co-enrichment or nearness to the bait. Other partners may have been found.
# Target: human TPC2 (TPC2-eGFP-FLAG) (human) (UniProt Q8NHX9)
# Experiment: affinity purification with mass spectrometry; anti-FLAG antibody on protein-A agarose; SILAC heavy/light HEK293 cells expressing TPC1-eGFP-FLAG or TPC2-eGFP-FLAG against eGFP-FLAG only; lysis in 2% dodecyl maltoside, 150 mM NaCl, 20 mM Tris-HCl pH 7.4; overnight at 4 °C; eluted with FLAG peptide; LC-MS/MS
substance,measurement,value
endogenous Lsm12 (from UniProt Q3MHD2 1-195),binding,binds
